# Percent effect of library compounds

Each number is a percent effect as filed.
The record does not define 0% and 100%; most values in the screen are far below 50% and negative numbers occur (in some assays of this library far below -100).
This is an unselected part of the compounds tested.
Two or more numbers in one place are separate tests of the same structure; such repeats can differ widely.

A: 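Phenotypic screen: M. tuberculosis growth, glucose 7H9 medium, 3 days; the read-out is not stated. Concentration: 50 µM. The record gives no direction; compounds that gave an IC50 in retests scored well above the rest, so higher reads as more growth inhibition. Size under these conditions: about 69,000 compounds, about 760 of them at 50% or above in at least one test.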
B: 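Whole-cell growth test on Mycobacterium tuberculosis, read after 4 days in a medium based on cholesterol and the lipid DPPC; the read-out is not stated. Concentration: 50 µM. Higher reads as more growth inhibition (inferred: compounds with an IC50 in retests scored well above the rest). About 69,000 compounds were tested under these conditions; 0.54% (about 370) showed 50% or more at least once.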

| Compound | A | B |
|---|---|---|
| `Cn1nc(-c2ccccc2NC(=O)c2cncc(Br)c2)ccc1=O` | -25.38 and -5.57 | -13.4 |
| `Cc1cc(C(=O)N2CCc3c(nc(-c4ccncc4)[nH]c3=O)C2)no1` | 0.2373 and -3.979 | 0.5778 |
| `[H][C@]12CC[C@]([H])(CN(S(C)(=O)=O)C1)N(C(=O)Cn1ccc3ccccc31)C2` | -5.272 | 16.54 |
| `Cc1n[nH]c2c1C(c1ccc3c(c1)OCCO3)SCC(=O)N2` (centres undefined) | -0.2104 | -12.86 |
| `CN(CCc1nccs1)C(=O)CC1(O)CCCCC1` | -5.56 | -12.24 |
| `Cc1cc(F)ccc1CN1CCC(O)(CN2CCCCC2)C1` (centres undefined) | -16.83 | 19.99 |
| `Cn1nccc1-c1cnc2n1CCC21CCN(C(=O)C2(C)CC2)CC1` | 1.1 | -29.3 |
| `O=C(Cc1ccc(O)c(F)c1)N1CCC2(CCNCC2)CC1` | -1.717 | -6.157 and -12.33 |
| `Cc1cc(C[C@@H]2CCC[C@H]2NCc2ccccc2C)on1.O=C(O)CC(O)(CC(=O)O)C(=O)O` | -22.7 | -3.212 |
| `CNC(=O)c1[nH]nc2c1CN(c1cc(C3CCCNC3)nc(C)n1)CC2` (centres undefined) | 5.228 and 7.325 | -12.52 |
| `O=C(O)C(F)(F)F.[H][C@]12CCC[C@@]1(COCC(=O)N(C)C)CNC2` | -4.695 and 3.232 | 9.732 |
| `CCN1C(=O)CCC12CCCN(Cc1nccs1)CC2.O=C(O)C(F)(F)F` (centres undefined) | 13.76 | -6.267 |
| `Cc1csc2ncc(-c3ccnc(N4CCCN(C)CC4)n3)c(=O)n12` | 9.329 | -7.598 |
| `Cc1ccnc(NC(=O)CSCc2cccnc2)c1` | -18.54 | -2.143 |
| `Cc1noc(C)c1-c1ccc(C2CCCN2C(=O)c2cnn(C)c2)nc1` (centres undefined) | 11.4 | 4.199 |
| `COc1cccc2c1OCC(C(=O)NCCc1nc3c(s1)CCC3)C2` (centres undefined) | -7.216 and 8.127 | -10.52 |
| `CN1CCN(C2CCOCC2)CC12CCC(=O)N(CC1CC1)CC2` (centres undefined) | 0.6545 | 18.78 |
| `CC(C)CCC(=O)NC(C)c1nnc2n1CCCCC2` (centres undefined) | 30.04 | 6.164 |
| `Cc1ncc(CN(C)CC(O)c2ccc(OC(F)(F)F)cc2)s1` (centres undefined) | 22.49 | 35.77 |
| `Cc1csc(C(Cc2ccsc2)NC(=O)c2cc(=O)n(C)c(=O)n2C)n1` (centres undefined) | 31.32 | 10.25 |
| `Cc1ccc2c(n1)N(Cc1cccnc1)CCN(Cc1cnn(C)c1)C2` | 16.46 | 11.31 |
| `CC(C)N(Cc1nccn1C)C(=O)c1cnc(O)cn1` | -27.19 | -13.91 |
| `COc1cc(C(=O)N(Cc2ccco2)C2CC2)cc2c1OCCO2` | -3.875 and 0.291 | 13.8 |
| `Cc1cccc2c1nc1n2[C@@H](CNC(=O)c2ccncc2)COC1` | 3.864 and -2.742 | -20.29 |
| `O=C(O)C(F)(F)F.O=C(O)C(F)(F)F.[H][C@@]12COC[C@]1(CN1CCOCC1)CN(Cc1cccc(OC)c1)C2` | 10.57 | -8.066 |
| `NC(=O)CNC1(c2ccc(Cl)cc2)CCCC1` | 10.14 | -12.57 |
| `CCc1nc(CN2CCCC(N(C)CCn3cncn3)C2)no1` (centres undefined) | -23.93 | -21.19 and -3.489 |
| `CCS(=O)(=O)CC(=O)NC(C)c1ccccc1Oc1ccccc1` (centres undefined) | 16.6 | 13 |
| `c1cncc(-c2nc(C3CC3)ncc2-c2ccnc(N3CCCC3)n2)c1` | 56.91 | 2.372 |
| `Cn1ccnc(Sc2ccc(O)cc2)c1=O` | 24.9 | 13.72 |
| `O=C(c1ccno1)N1CCO[C@]2(CCC[C@@H]2COCc2ccncc2)C1` | -1.911 and 13.55 | -4.956 |
| `O=C(Cn1nc(-c2ccc(F)cc2)oc1=O)NCCc1ccccc1` | 14.14 | 1.372 |
| `O=C(NCc1cnc2n1CCN(CC1CC1)CC2)C1CCC1` | 30.92 | 2.564 |
| `Cn1ccnc1COc1ccc(NC(=O)CCC2CCCO2)cc1` (centres undefined) | -19.78 | -16.75 |
| `O=C(O)C(F)(F)F.[H][C@@]12CCCO[C@]1([H])[C@H](OCC1CCCC1)CN2c1nnc(C)s1` | 12.22 and 5.623 | 7.411 |
| `CCn1c(C2CCCN(Cc3ccc(F)cc3Cl)C2)nn(C)c1=O` (centres undefined) | -8.811 and -37.42 | -25.32 |
| `CC1CCC(O)(CSc2nnnn2C2CC2)CC1` (centres undefined) | 50.11 | 45 |
| `COc1ccc(-c2cc3nn(CC(N)=O)c(=O)n3c(C)n2)cc1` | -11.38 | -30.29 |
| `Cc1noc(C)c1CN1CCCCC1CCc1ccc(O)cc1` (centres undefined) | -1.021 | -21.02 |
| `COCCN(Cc1ccc(F)cc1Cl)C(=O)c1ccc(=O)[nH]n1` | 13.28 and 3.874 | -1.554 |
| `CCN1CCN(C(=O)Cn2nc(C(F)(F)F)c(Br)c2C2CC2)CC1` | 24.95 | 0.3775 |
| `O=C(O)C(F)(F)F.[H][C@@]12C[C@@H](c3nc(C4CC4)cs3)O[C@]1([H])CN(C(=O)c1cccn1C)C2` | 19.57 | -2.229 |
| `COC1(CNS(=O)(=O)c2ccccc2Br)CCSC1` (centres undefined) | 45.11 | 33.38 |
| `COC(=O)C(NC(=O)c1cc(C)ccc1C)c1cccnc1` (centres undefined) | -0.3138 and 1.776 | 3.593 |
| `CCN(Cc1noc(CC(C)C)n1)Cc1ncccc1C(=O)O` | -2.574 | 4.75 |
| `CC1CN(c2ccc(CNC(=O)NCCO)cn2)CCO1` (centres undefined) | -2.773 and -3.442 | -13.74 |
| `CNS(=O)(=O)c1ccc(C(=O)NC2CCc3nc(C)cn3C2)o1` (centres undefined) | -34.07 | 6.305 |
| `Cc1cc(NCc2cc3n(n2)CCCN(C(=O)C2CCC2)C3)ncn1` | -15.88 | 2.437 |
| `COc1ccc(-n2ccc(C(=O)N3CCN(C)CC3C)n2)cc1` (centres undefined) | 10.33 | 2.661 |
| `CS(=O)(=O)N1CC2(CCN(CC3CCCCC3)C2)Cc2ccccc21` (centres undefined) | -1.552 | -13.96 |
| `Cc1cnn(CC(C)Nc2nc(C)cc(N(C)C)n2)c1` (centres undefined) | 24.27 | 19.52 |
| `C[C@@]1(O)CCN(C2CCOCC2)C[C@H]1n1ccc(=O)[nH]c1=O` | -29.07 | 9.793 and -0.07559 |
| `Cc1c(-c2cc(C(=O)N3CCc4ncc(Cl)cc4C3)on2)cnn1C` | -4.801 | -0.09531 and 6.097 |
| `CC(=O)N1CCN(C(=O)NC(C)C)CC2(CC(=O)N(C)C2)C1` (centres undefined) | -6.772 | -19.5 |
| `Cc1cnn(CC(C)NCc2ccc(C#N)cc2F)c1` (centres undefined) | 18.94 | -4.454 |
| `O=C(O)C(F)(F)F.[H][C@@]12OCCN(S(=O)(=O)C3CC3)[C@@]1([H])CC[C@H]2Oc1cccnc1` | -29.48 | 18.93 |
| `Cc1ccc(N2CCC3(CCN(Cc4csc(C)n4)C3=O)C2)nn1` (centres undefined) | -24.53 | -20.72 |
| `Cc1ccc(C(=O)N(C)Cc2nccn2CC(F)(F)F)cn1` | 37.53 | 11.32 |
| `c1cncc(OCC2CN(Cc3ccco3)Cc3nccn3C2)c1` (centres undefined) | 0.8115 | -5.624 |
| `O=C1N(c2ccc(Br)cc2)Cc2nc(=O)[nH]n21` | 14.34 | 14.85 |
| `COc1c(CNC2CCCOc3ccc(F)cc32)c(C(C)C)nn1C.Cl` (centres undefined) | 1.417 and -17.36 | 3.606 |
| `Cc1cc(C)n(C2CCCN(C(=O)c3cccc4c3OCO4)C2)n1` (centres undefined) | 9.52 | 17.99 |
| `Cc1ccc(F)c(OC2(C(=O)O)CCN(C(=O)C3CCCC3)CC2)c1` | 37.26 | 5.406 and 0.005692 |
| `COc1cccc(C2C3=C(COC3=O)Nc3[nH]nc(C)c32)c1O` (centres undefined) | 9.571 | -6.951 and -1.395 |
| `O=C(Nc1ccc(CCN2CCC(O)CC2)cc1)C1CCCOC1` (centres undefined) | 13.23 | 7.954 |
| `CC(C)Oc1ccccc1C(=O)NC1CC(=O)N(CC(F)(F)F)C1` (centres undefined) | 8.257 and 0.5503 | -2.566 |
| `[H][C@@]12CCN(C(=O)c3ccoc3)C[C@@]1([H])O[C@H](c1nnc(C3CC3)o1)C2` | 16.21 | 13.09 |
| `CCc1nc(CN2CCCN(C(=O)c3ccccc3)CC2)cs1` | 14.28 and 0.8425 | 2.867 |
| `CC(CN1CCOCC1)NC(=O)NCc1ccc(Cl)s1` (centres undefined) | 0.4619 and -5.079 | -18.72 |
| `CN(Cc1cn2c(n1)CN(C1CCOCC1)CC2)Cc1ccco1.O=C(O)C(F)(F)F.O=C(O)C(F)(F)F` | -37.56 | -17.86 and -19.25 |
| `Cc1ccc(C(=O)NCC2CCN(Cc3ccccc3C#N)C2)cn1` (centres undefined) | -14.99 | -1.536 |
| `Cc1csc(CN2CCC[C@]3(C[C@H](Oc4ccccn4)CO3)C2)n1.O=C(O)C(F)(F)F.O=C(O)C(F)(F)F` | 10.76 | 42.99 |
| `Cc1ccc(-c2nc(CN3CCN(CCO)CC3)co2)cc1` | 12.44 | -4.349 |
| `CNC(=O)CN1CCC(OCc2ccc(Cl)c(Cl)c2)CC1` | 26.81 | 11.45 |
| `Cc1ccc(C(=O)N2CCOc3nc(C)ccc32)c(F)c1` | -8.108 | 4.8 |
| `CC(=O)NCC1CCCN(C(=O)Cc2c(C)noc2C)C1` (centres undefined) | -5.666 | -8.713 |
| `Cc1nn(C)cc1-c1cc(C(F)(F)F)c2c(C)nn(CC(=O)O)c2n1` | -48 | -27.38 |
| `CCc1ncc(CN2CCC3(CCCN(CC4CCC4)C3)C2)cn1` (centres undefined) | 45.2 | 22.59 |
| `Cc1cc(CN2CCC(N(C)Cc3noc(C4CC4)n3)C2)on1` (centres undefined) | -7.707 | -26.87 |
| `CC(C)n1cccc1C(=O)N1CC[C@@H](NC(=O)c2ccccn2)[C@H](O)C1` | -4.448 | 3.274 and -7.293 |
| `Cc1cnn(CC2CCCN2C(=O)c2cc(Cl)ccc2F)c1` (centres undefined) | -6.251 | -19.48 |

7 of the entries, repeated:

- Cc1cccc2c1nc1n2[C@@H](CNC(=O)c2ccncc2)COC1 | A: 3.864% and -2.742%; B: -20.29%
- CCn1c(C2CCCN(Cc3ccc(F)cc3Cl)C2)nn(C)c1=O (centres undefined) | A: -8.811% and -37.42%; B: -25.32%
- CCN1C(=O)CCC12CCCN(Cc1nccs1)CC2.O=C(O)C(F)(F)F (centres undefined) | A: 13.76%; B: -6.267%
- CC(=O)NCC1CCCN(C(=O)Cc2c(C)noc2C)C1 (centres undefined) | A: -5.666%; B: -8.713%
- O=C1N(c2ccc(Br)cc2)Cc2nc(=O)[nH]n21 | A: 14.34%; B: 14.85%
- COc1cc(C(=O)N(Cc2ccco2)C2CC2)cc2c1OCCO2 | A: -3.875% and 0.291%; B: 13.8%
- Cc1n[nH]c2c1C(c1ccc3c(c1)OCCO3)SCC(=O)N2 (centres undefined) | A: -0.2104%; B: -12.86%

From ChEMBL document CHEMBL3988442, “University of Dundee, Small-Polar-MMV Screening Library” (2021).